# Out of some 360,000 compounds screened, about 9,100 (2.5%) were called active. The shares of active, inactive and inconclusive entries below differ from those in the screen. No stated cut-off is given here; in the data, active means max response below about -50%; inconclusive means no clear call, values can overlap the other calls; inactive means above that.
# Sequences of proteins named here, by UniProt entry; tags and fusion partners are left off.
# UniProt P35462, whole entry, looked up: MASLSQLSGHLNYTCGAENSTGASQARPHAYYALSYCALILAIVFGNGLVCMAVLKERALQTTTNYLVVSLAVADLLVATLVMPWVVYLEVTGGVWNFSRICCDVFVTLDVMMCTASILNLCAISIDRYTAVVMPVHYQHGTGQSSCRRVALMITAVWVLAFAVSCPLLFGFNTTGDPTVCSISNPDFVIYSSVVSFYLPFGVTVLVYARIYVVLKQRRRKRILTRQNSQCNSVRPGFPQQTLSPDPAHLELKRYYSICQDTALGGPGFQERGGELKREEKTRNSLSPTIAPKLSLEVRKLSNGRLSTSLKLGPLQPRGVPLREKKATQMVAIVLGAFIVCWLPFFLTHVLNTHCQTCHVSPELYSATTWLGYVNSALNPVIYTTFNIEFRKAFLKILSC
# Target: D(3) dopamine receptor (Homo sapiens) (UniProt P35462)
# Test: qHTS of D3 Dopamine Receptor Antagonist: qHTS
# Conditions: D3R cells, DiscoveRx beta-arrestin luminescence, antagonist mode; stronger effect = lower value
# Procedure, shortened: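 Cells expressing the human receptor were seeded at 1500 cells/well, incubated overnight at 37 degrees C in 5% CO2, then exposed to library compounds with dopamine controls for 90 minutes at 37 degrees C before luminescent detection.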
# On the % scale 0 is the no-effect control and ±100 the full control effect.
row,Structure (SMILES),"max response, negative = inhibition"
1,Cc1ccc(N(C(C)C(=O)Nc2cc(Cl)ccc2Oc2ccccc2)S(C)(=O)=O)cc1 (centres undefined),inactive: 4.11%
2,Cc1ccc(S(=O)(=O)N(C)C[C@H]2Oc3ccc(NC(=O)C4CCCCC4)cc3C(=O)N([C@H](C)CO)C[C@H]2C)cc1,inactive: -16.9%
3,CCN(CCCNC(=O)c1cc2c(-c3cccc(OC)c3)nn(C)c2s1)Cc1ccccc1,active: -53.9%
4,Cc1cccc(NC(=O)CCC(=O)N2CCOCC2)n1,inconclusive: -34.6%
5,COc1ccc(-n2c(=S)[nH]c3cc(C(=O)NCCCN4CCCC4=O)ccc3c2=O)c(OC)c1,inconclusive: -31.8%
6,CN(C)CCOCCOc1ccc(Cl)c2ccccc12,inconclusive: -48.6%
7,Cc1ccc(CS(=O)(=O)c2ncc(Cl)c(C(=O)Nc3ccc(OC(F)F)cc3)n2)cc1,active: -63.3%
8,Cc1ccc(S(=O)(=O)NC2c3cccc4cccc(c34)C2Sc2n[nH]c(N)n2)cc1 (centres undefined),inactive: 3.36%
9,O=C(c1cccc(S(=O)(=O)N2CCN(c3ccc(F)cc3)CC2)c1)N1CCN(c2ccccc2O)CC1,inconclusive: -36.6%
10,COc1ccc(CNC(=O)C2CCCN2S(=O)(=O)c2ccccc2)cc1 (centres undefined),inconclusive: -48.5%
11,C/C(=N\NC(=O)CN(c1ccccc1)S(C)(=O)=O)c1ccccc1O,inactive: -4.42%
12,O=C(N[C@H]1CCC(=O)N([C@H](CSc2ccccc2)Cc2ccccc2)CC1)OCc1ccccc1,inconclusive: -41.4%
13,CN1CCN(c2nc(Nc3ccccc3)nc(N)c2[N+](=O)[O-])CC1,active: -66.6%
14,Clc1ccc(SCc2cc(-c3ccc(Cl)cc3)on2)cc1,inconclusive: -35.2%
15,Cc1ccc(C2CC(=O)N3CN(Cc4ccco4)CSC3=C2C#N)cc1 (centres undefined),active: -58.7%
16,COc1cc(Cn2c3ccc(NC(=O)CCc4ccc(O)cc4)cc3c(=O)n2C)ccc1F,inactive: -4.83%
17,CCN(CC)CCCNC(=O)c1cc2c(-c3cccc(OC)c3)nn(C)c2s1,active: -82.2%
18,Cc1cc(C)nc(-n2nc(C)c(Oc3ccccc3O)c2C)n1,inactive: 0.871%
19,O=C(/C=C/c1cccc([N+](=O)[O-])c1)Nc1cccc(NC(=O)c2cccs2)c1,inactive: 6.52%
20,COC(=O)c1sccc1NC(=O)CSc1ccccc1NS(=O)(=O)c1ccc(F)cc1,inconclusive: -43.5%
21,COc1ccc(CNC(C)CCc2ccccc2)cc1 (centres undefined),active: -55.2%
22,CCOC(=O)C(C(=O)OCC)C(Nc1cccc(Br)c1)c1ccccc1 (centres undefined),inconclusive: -38.4%
23,O=C(c1ccccc1F)N1CCN(Cc2ccc3c(c2)OCO3)CC1,active: -67.4%
24,C[C@H](CO)N1C[C@H](C)[C@@H](CN(C)C(=O)Nc2ccc(C(F)(F)F)cc2)Oc2ccc(NC(=O)C3CCCCC3)cc2C1=O,inconclusive: -33%
25,CCOC(=O)c1ccc(Nc2cc(C)nc(C)c2C(=O)OCC)cc1,inconclusive: -30.4%
26,COc1ccc2c(CCNC(N)=S)c[nH]c2c1,inconclusive: -38.3%
27,Cc1ccc(NC(=O)CC2C(=O)N(Cc3ccccc3)C(=S)N2NC(=O)c2ccccc2)c(C)c1 (centres undefined),inconclusive: -30.9%

row,Structure (SMILES),"max response, negative = inhibition"
1,C=CCNCCCCOc1ccc(Br)cc1C,inconclusive: -47.8%
2,O=C(c1cc(Br)c(Br)s1)N1CCN(C/C=C/c2ccccc2)CC1,active: -78.2%
3,CCN(CC)CCN1C(=O)/C(=C\c2ccc(Cl)c([N+](=O)[O-])c2)SC1=Nc1ccc(OC)cc1,active: -102%
4,COc1ccccc1CN(C)CC(=O)Nc1cccc(S(=O)(=O)N2CCCC2)c1,inconclusive: -43.5%
5,O=C(NN=Cc1ccc2c(c1)CCC2)c1ccccc1[N+](=O)[O-],inconclusive: -38.8%
6,CCCCCCN1CCN(C2CN(Cc3cn(Cc4cccc(C(F)(F)F)c4)nn3)S(=O)(=O)C2)CC1 (centres undefined),inconclusive: -41.5%
7,CCOc1ccc2c(c1)-c1c(ssc1=S)C(C)(C)N2C(=O)CSC1=NCCS1,inconclusive: -46.2%
8,COc1cccc(-n2nc(C#N)c(Cl)cc2=O)c1,active: -87%
9,Cc1nnsc1C(=O)Nc1cccc(Cl)c1Cl,inconclusive: -42.9%
10,CN(C(=O)CC(NC(=O)c1ccccc1)(c1ccccc1)c1ccccc1)c1ccccc1,inconclusive: -36.2%
11,COc1ccccc1N1CCN(C(=O)c2sc3ncnc(N4CCN(c5ccccn5)CC4)c3c2C)CC1,inactive: 88.5%
12,O=C(Nc1ccc2nc(-c3ccc4nc[nH]c4c3)[nH]c2c1)c1cccs1,active: -69.2%
13,CC(/C=C/c1ccccc1)=N/NC(=O)c1cccc(Br)c1,active: -52.9%
14,COc1ccc(NC(=S)NCc2ccc3c(c2)cc(C)n3C)cc1,inconclusive: -44.4%
15,COc1cccc(S(=O)(=O)Nc2cccnc2)c1,inconclusive: -37.8%
16,N#Cc1ccccc1OCCCNC1CCCC1,active: -80.1%
17,CC(NS(=O)(=O)c1ccccc1)C(c1cccs1)N1CCN(C)CC1 (centres undefined),inconclusive: -33.5%
18,COc1ccccc1C(=O)NCCC(=O)NCC(c1ccco1)N1CCCCC1 (centres undefined),inconclusive: -39.3%
19,CC1(Oc2cccc(F)c2)CCN(Cc2ccc(-c3ccccn3)cc2)C1 (centres undefined),active: -67.2%
20,Cc1ccc2c(c1)C1CN(C)CCC1N2C(=S)NC(=O)c1ccc(Br)cc1 (centres undefined),inconclusive: -35.6%
21,CN(c1ccccc1)S(=O)(=O)c1cccc(NC(=O)c2ccc(Cl)c([N+](=O)[O-])c2)c1,inactive: 0%
22,C#CCOCCOCCOCCNc1nc(N2CCOCC2)nc(N2CCN(C(=O)[C@H](CCCCN)n3cc(CCCC)nn3)CC2)n1,inconclusive: -32.8%
23,CC(C)c1cc(CNC(=O)c2ccc(OC3CCN(Cc4ccccn4)CC3)cc2)on1,inactive: 7.96%
24,O=C(CCS(=O)(=O)c1cc2c(cc1Cl)NC(=O)CO2)NCc1ccc(F)cc1,inactive: 17.6%
25,COCCNC(=O)/C(C#N)=C/c1cc(C)n(-c2ccc(C)cc2)c1C,inconclusive: -33.1%
26,Nc1ncc(-c2ccc(F)cc2)nc1N1CCN(CCO)CC1,inactive: -21.1%
27,O=C(c1ccccc1)n1ccc(-c2cnc(-c3ccccc3)s2)n1,inactive: -2.24%

# In the list so far, these contain a CF3 group:
row,Structure (SMILES),"max response, negative = inhibition"
24,C[C@H](CO)N1C[C@H](C)[C@@H](CN(C)C(=O)Nc2ccc(C(F)(F)F)cc2)Oc2ccc(NC(=O)C3CCCCC3)cc2C1=O,inconclusive: -33%
6,CCCCCCN1CCN(C2CN(Cc3cn(Cc4cccc(C(F)(F)F)c4)nn3)S(=O)(=O)C2)CC1 (centres undefined),inconclusive: -41.5%
